{"source": "PubChem BioAssay AID1259405 (NCATS, 2018)", "purpose": "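Mouse-designed siRNAs used to find CHO productivity engineering targets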 (primary screen)", "cell system": "Chinese hamster CHO-K1 ovary cells with stable secreted eGFP expression", "knock-down reagent": "single siRNA against mouse genes, 0.8 pmol siRNA per well (2 µl of 400 nM stock)", "duration": "3 days", "read-out": "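Per-well intracellular GFP measured by laser scanning cytometry, plus viability from ATP luminescence, each relative to plate median of non-targeting control wells, in %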", "direction": "GFP, % of control: higher = more GFP per well, higher productivity; viability (ATP), % of control: higher = more viable cells (more ATP)", "active means": "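a knock-down is called active if GFP reaches 120% or more of non-targeting control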", "note": "Here is an unselected part of about 50,000 deposited reagents. About 4,000 of all reagents (8%) count as active. 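Mouse siRNA library applied to hamster cells; one well for each siRNA.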 The numbers tell different reagents against one gene apart."}
{"gene":"Rem1","reagent":1,"GFP, % of control":120,"viability (ATP), % of control":101,"activity call":"active"}
{"gene":"Rem1","reagent":2,"GFP, % of control":57.8,"viability (ATP), % of control":56.4,"activity call":"inactive"}
{"gene":"Rem1","reagent":3,"GFP, % of control":82.8,"viability (ATP), % of control":80.6,"activity call":"inactive"}
{"gene":"Gria3","reagent":1,"GFP, % of control":59,"viability (ATP), % of control":62.6,"activity call":"inactive"}
{"gene":"Gria3","reagent":2,"GFP, % of control":83.3,"viability (ATP), % of control":82.2,"activity call":"inactive"}
{"gene":"Gria3","reagent":3,"GFP, % of control":76.7,"viability (ATP), % of control":92.6,"activity call":"inactive"}
{"gene":"Shox2","reagent":1,"GFP, % of control":77.3,"viability (ATP), % of control":85.6,"activity call":"inactive"}
{"gene":"Shox2","reagent":2,"GFP, % of control":70.9,"viability (ATP), % of control":61.1,"activity call":"inactive"}
{"gene":"Shox2","reagent":3,"GFP, % of control":48,"viability (ATP), % of control":47.2,"activity call":"inactive"}
{"gene":"Rabgap1l","reagent":1,"GFP, % of control":81.2,"viability (ATP), % of control":53.2,"activity call":"inactive"}
{"gene":"Rabgap1l","reagent":2,"GFP, % of control":66.7,"viability (ATP), % of control":62.8,"activity call":"inactive"}
{"gene":"Rabgap1l","reagent":3,"GFP, % of control":75.5,"viability (ATP), % of control":67.7,"activity call":"inactive"}
{"gene":"Or7e177","reagent":1,"GFP, % of control":77.3,"viability (ATP), % of control":79.3,"activity call":"inactive"}
{"gene":"Or7e177","reagent":2,"GFP, % of control":97.9,"viability (ATP), % of control":72.4,"activity call":"inactive"}
{"gene":"Or7e177","reagent":3,"GFP, % of control":67.4,"viability (ATP), % of control":80.6,"activity call":"inactive"}
{"gene":"Oas1a","reagent":1,"GFP, % of control":75.5,"viability (ATP), % of control":75.7,"activity call":"inactive"}
{"gene":"Oas1a","reagent":2,"GFP, % of control":88.2,"viability (ATP), % of control":93.8,"activity call":"inactive"}
{"gene":"Oas1a","reagent":3,"GFP, % of control":42.8,"viability (ATP), % of control":39.2,"activity call":"inactive"}
{"gene":"Id4","reagent":1,"GFP, % of control":150,"viability (ATP), % of control":99,"activity call":"active"}
{"gene":"Id4","reagent":2,"GFP, % of control":85.5,"viability (ATP), % of control":67.2,"activity call":"inactive"}
{"gene":"Id4","reagent":3,"GFP, % of control":105,"viability (ATP), % of control":98.9,"activity call":"inactive"}
{"gene":"Ccr4","reagent":1,"GFP, % of control":31.7,"viability (ATP), % of control":40.7,"activity call":"inactive"}
{"gene":"Ccr4","reagent":2,"GFP, % of control":75.9,"viability (ATP), % of control":74.8,"activity call":"inactive"}
{"gene":"Ccr4","reagent":3,"GFP, % of control":97.5,"viability (ATP), % of control":105,"activity call":"inactive"}
{"gene":"St3gal6","reagent":1,"GFP, % of control":55,"viability (ATP), % of control":73.9,"activity call":"inactive"}
{"gene":"St3gal6","reagent":2,"GFP, % of control":121,"viability (ATP), % of control":94.7,"activity call":"active"}
{"gene":"St3gal6","reagent":3,"GFP, % of control":87.9,"viability (ATP), % of control":105,"activity call":"inactive"}
{"gene":"Rdh8","reagent":1,"GFP, % of control":50.5,"viability (ATP), % of control":56.5,"activity call":"inactive"}
{"gene":"Rdh8","reagent":2,"GFP, % of control":53.4,"viability (ATP), % of control":25.6,"activity call":"inactive"}
{"gene":"Rdh8","reagent":3,"GFP, % of control":70.9,"viability (ATP), % of control":51.9,"activity call":"inactive"}

Ordered by “viability (ATP), % of control” (high to low): some entries from above
{"gene":"Id4","reagent":3,"GFP, % of control":105,"viability (ATP), % of control":98.9,"activity call":"inactive"}
{"gene":"Id4","reagent":2,"GFP, % of control":85.5,"viability (ATP), % of control":67.2,"activity call":"inactive"}
{"gene":"Ccr4","reagent":1,"GFP, % of control":31.7,"viability (ATP), % of control":40.7,"activity call":"inactive"}

Further results follow.
{"gene":"Dhx9","reagent":1,"GFP, % of control":161,"viability (ATP), % of control":85.8,"activity call":"active"}
{"gene":"Dhx9","reagent":2,"GFP, % of control":102,"viability (ATP), % of control":116,"activity call":"inactive"}
{"gene":"Dhx9","reagent":3,"GFP, % of control":94.9,"viability (ATP), % of control":92.1,"activity call":"inactive"}
{"gene":"Mtrf1l","reagent":1,"GFP, % of control":74.7,"viability (ATP), % of control":73.6,"activity call":"inactive"}
{"gene":"Mtrf1l","reagent":2,"GFP, % of control":81.8,"viability (ATP), % of control":61.5,"activity call":"inactive"}
{"gene":"Mtrf1l","reagent":3,"GFP, % of control":78.1,"viability (ATP), % of control":40.6,"activity call":"inactive"}
{"gene":"Or5w13","reagent":1,"GFP, % of control":63.6,"viability (ATP), % of control":52.4,"activity call":"inactive"}
{"gene":"Or5w13","reagent":2,"GFP, % of control":40.1,"viability (ATP), % of control":61.5,"activity call":"inactive"}
{"gene":"Or5w13","reagent":3,"GFP, % of control":64.1,"viability (ATP), % of control":67.4,"activity call":"inactive"}
{"gene":"Fgr","reagent":1,"GFP, % of control":105,"viability (ATP), % of control":80.4,"activity call":"inactive"}
{"gene":"Pcna","reagent":1,"GFP, % of control":63,"viability (ATP), % of control":66.2,"activity call":"inactive"}
{"gene":"Pcna","reagent":2,"GFP, % of control":49.7,"viability (ATP), % of control":54.1,"activity call":"inactive"}
{"gene":"Pcna","reagent":3,"GFP, % of control":93.8,"viability (ATP), % of control":81,"activity call":"inactive"}
{"gene":"Or51r1","reagent":1,"GFP, % of control":101,"viability (ATP), % of control":85.8,"activity call":"inactive"}
{"gene":"Or51r1","reagent":2,"GFP, % of control":33.2,"viability (ATP), % of control":58,"activity call":"inactive"}
{"gene":"Or51r1","reagent":3,"GFP, % of control":181,"viability (ATP), % of control":47.3,"activity call":"active"}
{"gene":"Taar9","reagent":1,"GFP, % of control":86.7,"viability (ATP), % of control":77.3,"activity call":"inactive"}
{"gene":"Taar9","reagent":2,"GFP, % of control":83.3,"viability (ATP), % of control":86.3,"activity call":"inactive"}
{"gene":"Taar9","reagent":3,"GFP, % of control":93.1,"viability (ATP), % of control":36.5,"activity call":"inactive"}
{"gene":"Commd3","reagent":1,"GFP, % of control":47.3,"viability (ATP), % of control":71.5,"activity call":"inactive"}
{"gene":"Commd3","reagent":2,"GFP, % of control":50.1,"viability (ATP), % of control":74.9,"activity call":"inactive"}
{"gene":"Commd3","reagent":3,"GFP, % of control":65.9,"viability (ATP), % of control":92.1,"activity call":"inactive"}
